Source: article PMC7840889
Results are given in words; binding and its absence hold for the method and conditions named. Some results given as binding are weak or reduced against the parent protein; the word gives no strength. Where a sequence is shown, tags or fusion partners need not be part of it.

Molecular target: T1, FLAG-tagged full-length human TSC1 (human), Q92574
T1 chain: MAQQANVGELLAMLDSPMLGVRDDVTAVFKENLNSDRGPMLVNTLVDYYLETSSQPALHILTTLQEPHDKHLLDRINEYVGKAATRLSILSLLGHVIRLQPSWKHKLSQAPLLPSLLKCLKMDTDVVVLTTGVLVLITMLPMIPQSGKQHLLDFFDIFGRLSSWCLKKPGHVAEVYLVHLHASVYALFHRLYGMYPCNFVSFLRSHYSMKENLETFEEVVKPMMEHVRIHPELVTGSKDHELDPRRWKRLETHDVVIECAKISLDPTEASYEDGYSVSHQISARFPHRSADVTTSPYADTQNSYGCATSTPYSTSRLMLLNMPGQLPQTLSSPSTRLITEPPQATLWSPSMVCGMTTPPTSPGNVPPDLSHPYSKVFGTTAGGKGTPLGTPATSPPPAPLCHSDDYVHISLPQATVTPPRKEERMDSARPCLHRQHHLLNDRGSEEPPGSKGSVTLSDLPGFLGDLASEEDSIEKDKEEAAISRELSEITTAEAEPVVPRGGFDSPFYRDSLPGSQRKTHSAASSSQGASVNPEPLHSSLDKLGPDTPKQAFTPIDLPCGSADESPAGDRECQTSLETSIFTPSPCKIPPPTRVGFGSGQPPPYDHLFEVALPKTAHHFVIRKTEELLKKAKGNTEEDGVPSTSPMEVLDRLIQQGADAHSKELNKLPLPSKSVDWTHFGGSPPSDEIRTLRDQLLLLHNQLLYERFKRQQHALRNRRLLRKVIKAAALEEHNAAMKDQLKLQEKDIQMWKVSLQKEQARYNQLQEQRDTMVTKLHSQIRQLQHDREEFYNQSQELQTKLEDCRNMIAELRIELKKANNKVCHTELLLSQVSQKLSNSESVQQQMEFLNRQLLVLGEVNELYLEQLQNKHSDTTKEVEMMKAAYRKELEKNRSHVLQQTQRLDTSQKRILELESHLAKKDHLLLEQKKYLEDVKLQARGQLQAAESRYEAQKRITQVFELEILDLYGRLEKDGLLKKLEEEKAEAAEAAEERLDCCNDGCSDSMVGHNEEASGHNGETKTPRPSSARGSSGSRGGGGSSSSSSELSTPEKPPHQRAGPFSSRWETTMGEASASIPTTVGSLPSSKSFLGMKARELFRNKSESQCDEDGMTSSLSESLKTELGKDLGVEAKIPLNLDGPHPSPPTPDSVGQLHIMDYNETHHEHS
Test: cryo-EM structure; single-particle cryo-EM of purified TSCCFL at 0.1-0.2 mg/mL on graphene oxide; 25 mM K-HEPES pH 7.6, 175 mM KCl or 150 mM LiCl, 1 mM TCEP; body 4.6 Å, pincer 8.1 Å, tail 8.2 Å; both purified
Details: remark: other sources report otherwise

- binding: binds
B1: FLAG-tagged full-length human TSC1, Q92574-1 1-1164 (protein)
chain: T1 chain
